In the supplement of paper PMC10849652:
This is one part of the list.

Amino acid sequences for entries named in this document (tags omitted). A change or cut given only in a name is not applied to a line headed by its entry.
UniProt P25325: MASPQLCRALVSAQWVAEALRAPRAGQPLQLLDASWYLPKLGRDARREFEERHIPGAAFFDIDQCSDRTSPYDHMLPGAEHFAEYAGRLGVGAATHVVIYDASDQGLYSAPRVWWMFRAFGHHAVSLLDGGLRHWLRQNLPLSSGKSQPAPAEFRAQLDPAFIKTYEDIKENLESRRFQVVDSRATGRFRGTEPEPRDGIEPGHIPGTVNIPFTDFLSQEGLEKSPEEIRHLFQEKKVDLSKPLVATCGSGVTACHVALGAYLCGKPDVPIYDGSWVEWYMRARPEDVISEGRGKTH
UniProt Q96EN8: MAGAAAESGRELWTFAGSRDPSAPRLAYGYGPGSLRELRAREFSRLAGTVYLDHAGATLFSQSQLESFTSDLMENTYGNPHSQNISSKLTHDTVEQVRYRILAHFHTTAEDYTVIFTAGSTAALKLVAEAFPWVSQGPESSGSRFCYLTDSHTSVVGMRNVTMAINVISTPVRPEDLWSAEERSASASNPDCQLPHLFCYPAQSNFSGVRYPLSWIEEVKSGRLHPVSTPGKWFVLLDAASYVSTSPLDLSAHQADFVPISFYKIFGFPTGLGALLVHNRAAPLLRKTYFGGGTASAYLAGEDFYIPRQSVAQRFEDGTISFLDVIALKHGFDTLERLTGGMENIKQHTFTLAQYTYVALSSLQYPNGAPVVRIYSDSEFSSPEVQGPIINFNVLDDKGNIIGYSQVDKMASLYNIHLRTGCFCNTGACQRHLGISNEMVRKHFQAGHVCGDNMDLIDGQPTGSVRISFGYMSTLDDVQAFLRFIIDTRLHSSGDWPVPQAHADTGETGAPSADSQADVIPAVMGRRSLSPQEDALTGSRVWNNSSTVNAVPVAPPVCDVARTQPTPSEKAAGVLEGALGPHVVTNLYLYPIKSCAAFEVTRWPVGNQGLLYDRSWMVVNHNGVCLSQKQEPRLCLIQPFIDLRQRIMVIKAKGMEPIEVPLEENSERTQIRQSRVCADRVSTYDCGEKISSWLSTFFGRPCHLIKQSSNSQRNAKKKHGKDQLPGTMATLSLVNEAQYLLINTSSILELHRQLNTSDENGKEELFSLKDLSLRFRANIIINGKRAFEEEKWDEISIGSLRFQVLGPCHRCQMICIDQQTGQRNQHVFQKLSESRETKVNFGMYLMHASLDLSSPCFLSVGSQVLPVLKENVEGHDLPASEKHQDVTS
UniProt P46013: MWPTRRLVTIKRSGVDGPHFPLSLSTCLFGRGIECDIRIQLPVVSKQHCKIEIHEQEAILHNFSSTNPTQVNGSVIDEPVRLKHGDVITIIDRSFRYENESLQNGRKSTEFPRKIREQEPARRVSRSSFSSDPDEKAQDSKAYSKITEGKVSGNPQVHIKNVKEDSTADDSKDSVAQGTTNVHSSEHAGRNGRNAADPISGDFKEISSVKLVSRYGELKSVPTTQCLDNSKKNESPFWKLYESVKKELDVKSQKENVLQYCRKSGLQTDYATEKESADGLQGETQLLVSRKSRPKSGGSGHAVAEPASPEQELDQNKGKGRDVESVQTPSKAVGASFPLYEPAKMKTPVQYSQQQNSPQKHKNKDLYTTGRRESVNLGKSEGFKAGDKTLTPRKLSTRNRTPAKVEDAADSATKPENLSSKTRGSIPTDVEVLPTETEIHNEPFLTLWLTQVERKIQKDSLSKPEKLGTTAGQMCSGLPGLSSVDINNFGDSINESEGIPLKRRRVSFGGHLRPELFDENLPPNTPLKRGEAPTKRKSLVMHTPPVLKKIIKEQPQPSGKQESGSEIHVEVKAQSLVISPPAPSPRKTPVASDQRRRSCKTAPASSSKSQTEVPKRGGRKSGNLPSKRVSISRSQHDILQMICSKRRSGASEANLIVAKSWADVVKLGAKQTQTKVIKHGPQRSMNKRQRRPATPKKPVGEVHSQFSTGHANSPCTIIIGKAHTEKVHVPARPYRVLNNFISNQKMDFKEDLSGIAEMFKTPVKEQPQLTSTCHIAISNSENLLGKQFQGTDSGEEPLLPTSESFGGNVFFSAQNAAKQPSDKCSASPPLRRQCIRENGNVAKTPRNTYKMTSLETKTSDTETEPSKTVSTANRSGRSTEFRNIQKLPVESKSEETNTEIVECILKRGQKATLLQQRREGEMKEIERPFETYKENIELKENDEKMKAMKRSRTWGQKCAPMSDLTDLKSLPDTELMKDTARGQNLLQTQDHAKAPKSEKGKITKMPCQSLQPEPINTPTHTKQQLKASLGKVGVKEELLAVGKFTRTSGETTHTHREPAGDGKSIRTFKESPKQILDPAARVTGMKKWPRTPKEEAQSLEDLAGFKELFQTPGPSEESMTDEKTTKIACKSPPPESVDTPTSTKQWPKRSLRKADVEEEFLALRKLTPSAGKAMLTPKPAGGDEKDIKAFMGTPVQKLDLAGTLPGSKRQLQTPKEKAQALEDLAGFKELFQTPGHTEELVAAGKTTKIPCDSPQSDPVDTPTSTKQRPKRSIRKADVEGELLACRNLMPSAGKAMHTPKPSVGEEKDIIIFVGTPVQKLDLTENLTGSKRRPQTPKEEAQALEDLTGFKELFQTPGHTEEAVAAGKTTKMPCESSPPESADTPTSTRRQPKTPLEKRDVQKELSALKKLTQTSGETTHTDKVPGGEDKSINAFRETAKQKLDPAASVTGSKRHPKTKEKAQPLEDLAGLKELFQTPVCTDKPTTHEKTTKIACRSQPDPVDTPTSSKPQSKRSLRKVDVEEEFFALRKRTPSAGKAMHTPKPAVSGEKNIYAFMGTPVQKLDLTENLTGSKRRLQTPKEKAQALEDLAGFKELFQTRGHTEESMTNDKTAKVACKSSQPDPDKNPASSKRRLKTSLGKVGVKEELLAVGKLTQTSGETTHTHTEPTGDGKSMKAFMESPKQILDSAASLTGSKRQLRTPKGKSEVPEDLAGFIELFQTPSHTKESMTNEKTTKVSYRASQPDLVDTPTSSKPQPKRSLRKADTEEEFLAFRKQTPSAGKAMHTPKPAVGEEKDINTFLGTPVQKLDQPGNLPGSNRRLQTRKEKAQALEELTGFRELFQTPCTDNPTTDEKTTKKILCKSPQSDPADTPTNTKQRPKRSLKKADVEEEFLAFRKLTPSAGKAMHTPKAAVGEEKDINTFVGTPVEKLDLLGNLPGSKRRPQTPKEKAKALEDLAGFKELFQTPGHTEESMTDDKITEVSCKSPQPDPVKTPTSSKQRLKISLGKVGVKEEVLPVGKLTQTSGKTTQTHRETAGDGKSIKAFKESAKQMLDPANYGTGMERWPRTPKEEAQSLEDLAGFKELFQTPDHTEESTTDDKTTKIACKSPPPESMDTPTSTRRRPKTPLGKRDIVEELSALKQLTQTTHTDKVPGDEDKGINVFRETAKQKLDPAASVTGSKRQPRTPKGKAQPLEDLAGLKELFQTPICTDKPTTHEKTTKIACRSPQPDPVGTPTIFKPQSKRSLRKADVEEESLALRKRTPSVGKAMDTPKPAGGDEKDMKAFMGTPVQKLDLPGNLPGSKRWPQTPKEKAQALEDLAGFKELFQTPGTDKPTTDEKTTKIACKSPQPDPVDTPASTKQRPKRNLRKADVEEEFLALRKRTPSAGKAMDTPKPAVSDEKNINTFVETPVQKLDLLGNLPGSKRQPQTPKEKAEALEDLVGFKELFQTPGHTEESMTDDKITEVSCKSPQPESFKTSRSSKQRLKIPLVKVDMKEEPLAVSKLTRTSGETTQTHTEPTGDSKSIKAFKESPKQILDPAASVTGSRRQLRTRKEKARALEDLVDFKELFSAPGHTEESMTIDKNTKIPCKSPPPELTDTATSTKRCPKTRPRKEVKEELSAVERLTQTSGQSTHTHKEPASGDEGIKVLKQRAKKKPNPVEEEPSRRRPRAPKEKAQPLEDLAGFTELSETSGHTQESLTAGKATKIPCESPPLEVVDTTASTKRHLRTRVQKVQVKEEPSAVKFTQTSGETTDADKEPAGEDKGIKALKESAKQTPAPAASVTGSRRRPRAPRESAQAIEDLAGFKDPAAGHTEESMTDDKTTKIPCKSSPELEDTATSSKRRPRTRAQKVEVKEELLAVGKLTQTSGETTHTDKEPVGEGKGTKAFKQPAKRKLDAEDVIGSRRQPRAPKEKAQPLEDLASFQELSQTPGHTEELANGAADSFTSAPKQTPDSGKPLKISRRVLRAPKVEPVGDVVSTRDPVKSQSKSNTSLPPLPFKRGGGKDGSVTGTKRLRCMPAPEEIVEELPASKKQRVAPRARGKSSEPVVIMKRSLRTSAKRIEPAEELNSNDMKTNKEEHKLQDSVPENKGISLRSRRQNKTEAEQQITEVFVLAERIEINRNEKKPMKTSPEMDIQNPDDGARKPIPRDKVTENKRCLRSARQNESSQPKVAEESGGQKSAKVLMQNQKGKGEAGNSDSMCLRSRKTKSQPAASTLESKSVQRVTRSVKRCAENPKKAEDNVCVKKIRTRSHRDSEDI
UniProt Q9UL63, whole entry, looked up: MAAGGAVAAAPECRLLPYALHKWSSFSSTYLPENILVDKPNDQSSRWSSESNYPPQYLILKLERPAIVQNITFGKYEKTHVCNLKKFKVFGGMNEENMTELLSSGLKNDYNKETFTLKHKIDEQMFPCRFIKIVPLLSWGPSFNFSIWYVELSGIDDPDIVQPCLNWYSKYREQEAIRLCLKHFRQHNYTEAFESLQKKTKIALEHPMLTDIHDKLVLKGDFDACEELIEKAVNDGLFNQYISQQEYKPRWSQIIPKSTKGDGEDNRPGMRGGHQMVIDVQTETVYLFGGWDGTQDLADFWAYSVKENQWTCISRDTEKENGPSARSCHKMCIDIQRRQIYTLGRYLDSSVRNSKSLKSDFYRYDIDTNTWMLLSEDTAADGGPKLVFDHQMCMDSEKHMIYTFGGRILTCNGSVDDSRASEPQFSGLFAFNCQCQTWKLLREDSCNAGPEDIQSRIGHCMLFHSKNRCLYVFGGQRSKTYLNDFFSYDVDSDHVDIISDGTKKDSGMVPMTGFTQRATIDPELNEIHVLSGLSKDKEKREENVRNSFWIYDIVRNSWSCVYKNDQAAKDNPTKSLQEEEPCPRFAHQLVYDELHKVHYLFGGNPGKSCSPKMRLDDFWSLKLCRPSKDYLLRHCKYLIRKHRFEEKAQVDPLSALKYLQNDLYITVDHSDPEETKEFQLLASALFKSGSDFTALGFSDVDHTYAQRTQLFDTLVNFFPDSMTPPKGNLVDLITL
UniProt Q14149: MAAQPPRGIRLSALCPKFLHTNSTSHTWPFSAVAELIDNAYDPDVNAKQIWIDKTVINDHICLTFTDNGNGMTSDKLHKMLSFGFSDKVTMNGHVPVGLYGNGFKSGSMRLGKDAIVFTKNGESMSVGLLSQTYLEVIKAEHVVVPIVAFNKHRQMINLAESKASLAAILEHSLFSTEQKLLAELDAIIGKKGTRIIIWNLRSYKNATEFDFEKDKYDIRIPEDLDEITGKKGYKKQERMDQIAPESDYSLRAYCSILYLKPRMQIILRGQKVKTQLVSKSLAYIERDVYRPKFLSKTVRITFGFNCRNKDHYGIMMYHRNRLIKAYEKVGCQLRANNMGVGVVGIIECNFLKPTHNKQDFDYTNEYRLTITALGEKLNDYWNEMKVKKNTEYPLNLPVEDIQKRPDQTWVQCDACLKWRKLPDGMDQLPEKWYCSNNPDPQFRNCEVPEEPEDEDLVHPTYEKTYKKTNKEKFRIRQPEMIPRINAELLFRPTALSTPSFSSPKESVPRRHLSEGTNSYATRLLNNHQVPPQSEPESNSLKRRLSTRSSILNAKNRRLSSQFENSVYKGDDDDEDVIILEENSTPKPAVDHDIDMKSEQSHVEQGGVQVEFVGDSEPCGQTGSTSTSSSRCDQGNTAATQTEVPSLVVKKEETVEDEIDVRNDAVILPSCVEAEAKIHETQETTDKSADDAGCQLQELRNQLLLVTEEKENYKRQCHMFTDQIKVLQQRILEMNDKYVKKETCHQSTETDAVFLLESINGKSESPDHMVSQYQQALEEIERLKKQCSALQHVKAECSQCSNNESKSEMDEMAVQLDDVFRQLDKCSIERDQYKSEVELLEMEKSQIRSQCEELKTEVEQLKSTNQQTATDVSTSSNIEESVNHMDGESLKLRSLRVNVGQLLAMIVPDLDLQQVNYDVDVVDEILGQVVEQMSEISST
UniProt Q5TGZ0: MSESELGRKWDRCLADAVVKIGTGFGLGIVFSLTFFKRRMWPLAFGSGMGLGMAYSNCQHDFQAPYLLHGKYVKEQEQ
UniProt P39210: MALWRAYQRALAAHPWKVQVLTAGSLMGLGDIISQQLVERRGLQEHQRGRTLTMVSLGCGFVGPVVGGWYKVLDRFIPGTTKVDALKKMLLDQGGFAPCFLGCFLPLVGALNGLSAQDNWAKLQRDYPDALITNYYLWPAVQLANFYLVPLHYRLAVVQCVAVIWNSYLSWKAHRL
UniProt Q9BRT3: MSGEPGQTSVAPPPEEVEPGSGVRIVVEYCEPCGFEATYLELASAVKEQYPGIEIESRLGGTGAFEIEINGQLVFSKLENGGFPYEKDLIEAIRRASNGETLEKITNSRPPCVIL

Columns and labels:
Assay in all cases: log2 fold change, soluble protein after heating vs DMSO (PISA); higher = thermal stabilisation; K562 cells, 10 uM, 30 min; active = over 0.2 and 3.5 SD of the protein, either way, in both replicates (recomputed)
erlotinib = compound: C#Cc1cccc(Nc2ncnc3cc(OCCOC)c(OCCOC)cc23)c1 [erlotinib]
Procedure, shortened: (§1)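 K562 cells (2×10^6 cells/mL) were treated with 10 μM compound for 30 min, and aliquots were heated for 3 min over 48°C-58°C. Pooled aliquots were extracted in PBS with 0.5% NP-40 at 4°C, and the supernatant after 21,000xg for 90 min was measured by TMTpro 16plex LC-MS/MS with channel sums equalised. Reported thermal stability, relative to control samples and from duplicates, is a log2 fold change.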

[1] = compound: C/C(=N\NC(=O)C1=CC(=CC=C1)S(=O)(=O)N2CCOCC2)/C3=C(C=CC(=C3)Cl)O
Procedure, shortened: as §1

[2] = compound: C1=CC(=C(C=C1Cl)C2=NC3=NC=CN=C3C(=N2)NC4=CC=NC=C4)F
Procedure, shortened: as §1

[3] = compound: C1=CC(=CC=C1C2=NC3=C(N2)C=C(C=C3)C(=O)N)OC4=CC=C(C=C4)Cl
Procedure, shortened: as §1

[4] = compound: C1=CC2=C(C=CC(=C2)/C=C\3/C(=O)NC(=NCC4=CC=CS4)S3)N=C1
Procedure, shortened: as §1

[5] = compound: C1=CC2=NC=CN=C2C=C1/C=C/3\C(=O)NC(=O)S3
Procedure, shortened: as §1

[6] = compound: C1=CC=C(C=C1)C2=NC(=C(N2)C3=CC=NC=C3)C4=CC(=C(C=C4)Cl)O
Procedure, shortened: as §1

[7] = compound: C1=CC=C2C(=C1)C3=NNC4=CC=CC(=C43)C2=O
Procedure, shortened: as §1

[8] = compound: C1CCN(C1)C(=O)NC2=CC=CC(=C2)NC3=NC=C(C(=N3)NCCC4=CN=CN4)Br
Procedure, shortened: as §1

[9] = compound: C1CN(CCC1(CC2=CC=C(C=C2)Cl)N)C3=NC=NC4=C3C=CN4
Procedure, shortened: as §1

Measured: log2 fold change

MRPL37 (UniProt Q9BZE1)
inactive: erlotinib -0.084 | [1] -0.119 | [2] -0.09 | [3] 0.064 | [4] -0.031 | [5] 0.016 | [6] 0.036 | [7] 0.129 | [8] -0.066 | [9] -0.157

MRPL40 (UniProt Q9NQ50)
inactive: erlotinib -0.143 | [1] -0.094 | [2] -0.155 | [3] 0.055 | [4] 0.046 | [5] 0.014 | [6] 0.084 | [7] 0.074 | [8] -0.023 | [9] -0.141

MIEF1 (UniProt Q9NQG6)
inactive: erlotinib 0.009 | [1] 0.03 | [2] 0.104 | [3] 0.021 | [4] 0.072 | [5] 0.001 | [6] 0.025 | [7] -0.027 | [8] -0.028 | [9] -0.021

MPST isoform 2 (UniProt P25325)
inactive: erlotinib 0.001 | [1] 0.027 | [2] 0.042 | [3] -0.065 | [4] 0.095 | [5] -0.023 | [6] 0.026 | [7] 0.024 | [8] -0.006 | [9] -0.01

MOCOS (UniProt Q96EN8)
inactive: erlotinib 0 | [1] 0.037 | [2] -0.044 | [3] 0.051 | [4] -0.049 | [5] 0.028 | [6] 0.023 | [7] -0.016 | [8] 0.029 | [9] 0.016

MIER1 isoform 12 (UniProt Q8N108)
active: erlotinib 0.399
inactive: [1] 0.009 | [2] 0.016 | [3] -0.031 | [4] 0.024 | [5] 0.014 | [6] 0.001 | [7] 0.02 | [8] -0.06 | [9] 0.028

MOCS3 (UniProt O95396)
inactive: erlotinib 0.07 | [1] 0.1 | [2] 0.083 | [3] 0.062 | [4] 0.057 | [5] -0.121 | [7] 0.047 | [8] 0.029 | [9] 0

MKI67 (UniProt P46013)
inactive: erlotinib 0.044 | [1] 0.002 | [2] -0.161 | [3] -0.013 | [4] -0.04 | [5] 0.142 | [6] 0 | [7] 0.037 | [8] -0.002 | [9] 0.028

MRPL44 (UniProt Q9H9J2)
inactive: erlotinib -0.186 | [1] -0.094 | [2] -0.129 | [3] 0.088 | [4] -0.101 | [5] -0.026 | [6] 0.034 | [7] 0.137 | [8] -0.004 | [9] -0.228

MKLN1 (UniProt Q9UL63)
inactive: erlotinib -0.057 | [1] 0.002 | [2] -0.012 | [3] 0.031 | [4] -0.039 | [5] 0.026 | [6] 0.049 | [7] -0.018 | [8] -0.024 | [9] -0.016

MORC3 (UniProt Q14149)
inactive: erlotinib 0.022 | [1] 0.084 | [2] 0.171 | [3] 0.035 | [4] -0.024 | [5] 0.068 | [6] 0.012 | [7] 0.014 | [8] -0.026 | [9] -0.162

MON2 isoform 5 (UniProt Q7Z3U7)
inactive: erlotinib 0.034 | [1] 0.034 | [2] 0.072 | [3] -0.019 | [4] 0.016 | [5] 0.015 | [6] 0.015 | [7] 0.007 | [8] -0.019 | [9] 0.004

MRPL11 (UniProt Q9Y3B7)
inactive: erlotinib -0.148 | [1] -0.135 | [2] -0.183 | [3] 0.149 | [4] -0.025 | [5] -0.013 | [6] 0.047 | [7] 0.142 | [8] 0.016 | [9] -0.195

MICOS10 (UniProt Q5TGZ0)
inactive: erlotinib -0.009 | [1] 0.053 | [2] 0.16 | [3] -0.022 | [4] 0.089 | [5] 0.05 | [6] 0.022 | [7] 0.093 | [8] -0.01 | [9] 0.014

MRPL24 (UniProt Q96A35)
inactive: erlotinib -0.216 | [1] -0.172 | [2] -0.167 | [3] 0.004 | [4] -0.084 | [5] 0.024 | [6] 0.016 | [7] 0.137 | [8] -0.106 | [9] -0.199

MOCS1 isoform 8 (UniProt Q9NZB8)
inactive: erlotinib 0.06 | [1] -0.043 | [2] 0.055 | [3] -0.022 | [4] 0.041 | [5] 0.098 | [6] -0.044 | [7] -0.009 | [8] -0.031 | [9] 0.053

MICU2 (UniProt Q8IYU8)
inactive: erlotinib -0.013 | [1] -0.013 | [2] -0.06 | [3] -0.002 | [4] -0.038 | [5] -0.015 | [6] 0.103 | [7] 0.018 | [8] 0.045 | [9] -0.042

MRPL47 (UniProt Q9HD33)
inactive: erlotinib -0.189 | [1] -0.107 | [2] -0.098 | [3] 0.096 | [4] -0.002 | [5] -0.047 | [6] -0.012 | [7] 0.094 | [8] -0.004 | [9] -0.273

MOB1B isoform 2 (UniProt Q7L9L4)
inactive: erlotinib 0.019 | [1] -0.004 | [2] 0.054 | [3] 0.013 | [4] 0.018 | [5] 0.029 | [6] -0.023 | [7] -0.02 | [8] 0.027 | [9] 0.047

MPP1 (UniProt Q00013)
inactive: erlotinib 0.083 | [1] 0.098 | [2] 0.027 | [3] 0.016 | [4] 0.004 | [5] -0.001 | [6] 0.012 | [7] 0.033 | [8] -0.048 | [9] -0.019

MLXIP (UniProt Q9HAP2)
inactive: erlotinib -0.013 | [1] 0.117 | [2] 0.111 | [3] 0.021 | [4] 0.085 | [5] -0.037 | [6] 0.104 | [7] 0.044 | [8] -0.013 | [9] 0.019

MRM1 (UniProt Q6IN84)
inactive: erlotinib -0.098 | [1] -0.141 | [2] -0.345 | [3] 0.127 | [4] -0.097 | [5] 0.012 | [6] -0.04 | [7] 0.022 | [8] 0.035 | [9] -0.127

MPV17 (UniProt P39210)
inactive: erlotinib 0.071 | [1] 0.069 | [2] 0.128 | [3] -0.162 | [4] 0.11 | [5] 0.005 | [6] 0.069 | [7] 0.025 | [8] 0.012 | [9] -0.009

Copied from the results shown (2 entries):
MLXIP (UniProt Q9HAP2)
inactive: erlotinib -0.013 | [1] 0.117 | [2] 0.111 | [3] 0.021 | [4] 0.085 | [5] -0.037 | [6] 0.104 | [7] 0.044 | [8] -0.013 | [9] 0.019

MRM1 (UniProt Q6IN84)
inactive: erlotinib -0.098 | [1] -0.141 | [2] -0.345 | [3] 0.127 | [4] -0.097 | [5] 0.012 | [6] -0.04 | [7] 0.022 | [8] 0.035 | [9] -0.127

Following part

MIEN1 (UniProt Q9BRT3)
inactive: erlotinib 0.023 | [1] 0.048 | [2] 0.046 | [3] -0.02 | [4] 0.033 | [5] 0.099 | [6] 0.035 | [7] -0.065 | [8] 0.024 | [9] -0.076

MIS12 (UniProt Q9H081)
inactive: erlotinib 0.103 | [1] 0.083 | [2] 0.012 | [3] 0.002 | [4] 0.107 | [5] 0.052 | [6] -0.063 | [7] -0.018 | [8] -0.16 | [9] -0.016

MRPL45 (UniProt Q9BRJ2)
inactive: erlotinib -0.159 | [1] -0.071 | [2] -0.103 | [3] 0.081 | [4] 0.01 | [5] 0.011 | [6] -0.011 | [7] 0.132 | [8] -0.085 | [9] -0.195

MRNIP (UniProt Q6NTE8)
inactive: erlotinib -0.029 | [2] 0.096 | [3] 0.057 | [6] -0.183 | [8] -0.101 | [9] 0.185

MMRN1 (UniProt Q13201)
inactive: [6] 0.008

MLLT10 (UniProt P55197)
inactive: [2] -0.044 | [5] -0.075 | [6] -0.353

MLH1 (UniProt P40692)
inactive: [1] 0.027 | [2] 0.077 | [4] -0.038 | [5] 0.096 | [7] 0.053 | [8] -0.165 | [9] 0.039

MRFAP1 (UniProt Q9Y605)
inactive: erlotinib -0.007 | [1] -0.019 | [3] -0.013 | [4] -0.334 | [5] 0.014 | [6] -0.045 | [7] 0.141 | [8] -0.162 | [9] -0.106

MRPL57 (UniProt Q9BQC6)
inactive: erlotinib -0.114 | [1] -0.152 | [2] -0.281 | [3] 0.065 | [4] 0.012 | [5] -0.059 | [7] 0.042 | [8] -0.003 | [9] -0.196
